Laboratory results as given in PubChem BioAssay AID540256 (National Center for Advancing Translational Sciences (NCATS), 2011).
Out of some 300,000 compounds screened, about 3,700 (1.2%) were called active. The shares of active, inactive and inconclusive entries below differ from those in the screen. The call rests on the fitted dose curve; tested in HEK293 cells. Potencies of inconclusive entries are doubtful fits and often do not repeat.

experiment: qHTS for Inhibitors of binding or entry into cells for Lassa Virus; conditions: Lassa virus pseudotype entry inhibition, cell reporter; series mostly up to 37.9 µM; further: nearly all actives have a fitted effect of over 50% in size
Potency means the concentration at half of the fitted maximal effect.

Q: For `Cc1ccc(NC(=O)c2cnc(SCC(=O)NCC3CCCO3)n(C)c2=O)cc1` (configuration not stated), which Potency is on record?
A: Its Potency is inconclusive: 35.5 µM [inhibitor, single point].

Q: With `Cc1cc(C(=O)NC(C)Cc2ccccc2)cc(C)c1[N+](=O)[O-]` (configuration not stated) as the molecule, how does the Potency read?
A: Its Potency is inconclusive: 17.8 µM [inhibitor, partial curve, poor fit].

Q: Which Potency does the source give for `O=C(CN1CCCCC1)Nc1c2c(nc3ccccc13)N(c1ccccc1)CC2` here?
A: Its Potency is inconclusive: 14.6 µM [inhibitor, partial curve, poor fit].

Q: For `Cc1cccc(NC(=O)Cn2c(=O)n(-c3ccccc3Cl)c(=O)c3c(C)c(C(=O)N(C)C)sc32)c1`, which Potency is on record?
A: Its Potency is “inactive”.

Q: For `CCOC(=O)c1ccc(NC(=O)CN(c2ccc(C)cc2)S(=O)(=O)c2c(C)noc2C)cc1`, which Potency is on record?
A: Its Potency is inconclusive: 35.5 µM [inhibitor, single point].

Q: With `O=[N+]([O-])c1cccc(/C=N\N=C2c3ccccc3-c3ccccc32)c1O` as the molecule, how does the Potency read?
A: The Potency was “inactive”.

Q: For `CCN(CC)S(=O)(=O)c1ccc(NC(=S)NC(=O)C2CCC2)cc1`, which Potency is on record?
A: The Potency was “inactive”.

Q: With `CCOC(=O)C(C(=O)OCC)c1c([N+](=O)[O-])c(=O)n2c3c(cccc13)CCC2` as the molecule, how does the Potency read?
A: Its Potency is inconclusive: 3.98 µM [activator, full curve, poor fit].

Q: For `CC(=O)Nc1c(C)nn(-c2ccccc2)c1N1CCC(C(=O)NCc2ccc(Cl)cc2)CC1`, which Potency is on record?
A: Its Potency is “inactive”.

Q: For `CC1CCN(c2ccc(/C=N/n3nnnc3N)cc2[N+](=O)[O-])CC1`, which Potency is on record?
A: Its Potency is inconclusive: 29.1 µM [activator, single point].

Q: With `Cc1cccc(C(=O)N2CCN=C2SCc2ccc([N+](=O)[O-])cc2)c1` as the molecule, how does the Potency read?
A: Its Potency is inconclusive: 15.8 µM [inhibitor, single point].

Q: For `C=CCOc1c(Cl)cc(CNc2nccs2)cc1OC`, which Potency is on record?
A: The Potency was inconclusive: 35.5 µM [inhibitor, single point].

Q: For `CCN(CC)C(=S)Nc1ccc(OC)cc1`, which Potency is on record?
A: The Potency was “inactive”.

Q: With `CCOC(=O)c1ccc(CN(Cc2ccccc2)S(=O)(=O)c2ccc(C)cc2)cc1` as the molecule, how does the Potency read?
A: The Potency was active: 11.2 µM.

Q: With `CCOC1(c2ccccc2)OC(=O)c2ccccc21` (configuration not stated) as the molecule, how does the Potency read?
A: Its Potency is inconclusive: 3.98 µM [activator, partial curve, poor fit].

Q: With `CCN(CC)S(=O)(=O)c1ccc(OC)c(NC(=O)C(C)Oc2ccc3c(C)cc(=O)oc3c2)c1` (configuration not stated) as the molecule, how does the Potency read?
A: The Potency was inconclusive: 9.2 µM [inhibitor, partial curve, poor fit].

Q: Which Potency does the source give for `CCc1nnc2n1N=C(c1ccc(-c3cc(Cl)ccc3Cl)o1)CS2` here?
A: The Potency was inconclusive: 10.3 µM [inhibitor, single point].

Q: Which Potency does the source give for `Cc1ccc(NC(=O)/C=C/c2ccc([N+](=O)[O-])s2)cc1` here?
A: Its Potency is active: 10 µM.

Q: With `Cc1ccc2[nH]c(=O)c(N3CCOCC3)c(-c3ccccc3)c2c1` as the molecule, how does the Potency read?
A: Its Potency is “inactive”.

Q: For `Cc1sc2c(c1C)c(=O)n(CCc1ccccc1)c(=O)n2Cc1cccc(F)c1`, which Potency is on record?
A: Its Potency is “inactive”.

Q: Which Potency does the source give for `O=C(C1CCC1)N1CCc2cc(S(=O)(=O)NCCN3CCN(c4ccccc4F)CC3)ccc21` here?
A: The Potency was active: 15.8 µM.

Q: With `CN1c2ccccc2C(O)=C(C(=S)Nc2ccc(F)c(Cl)c2)S1(=O)=O` as the molecule, how does the Potency read?
A: The Potency was inconclusive: 20 µM [inhibitor, single point].

Q: With `COc1cccc(NC(=S)N(CCCN2CCC(C)CC2)Cc2cccs2)c1` as the molecule, how does the Potency read?
A: Its Potency is “inactive”.

Q: With `Cn1c(=O)c(C(=O)COc2ccc(C#N)cc2)c(N)n(Cc2ccccc2)c1=O` as the molecule, how does the Potency read?
A: Its Potency is “inactive”.

Q: For `COC(=O)CCCC(=O)NC1CC(C)(C)Cc2c1cnn2-c1ccc(C)cc1` (configuration not stated), which Potency is on record?
A: Its Potency is inconclusive: 35.5 µM [inhibitor, single point].

Q: Which Potency does the source give for `CC(C)(C)C(=O)C[n+]1ccccc1` here?
A: The Potency was inconclusive: 0.13 µM [inhibitor, full curve, poor fit].

Q: Which Potency does the source give for `N#Cc1c2n(c3c(=O)n(Cc4ccccc4)cnc13)CCCC2` here?
A: The Potency was inconclusive: 4.11 µM [activator, single point].

Q: With `O=C(Nc1ccccc1)Nc1ncc([N+](=O)[O-])s1` as the molecule, how does the Potency read?
A: The Potency was active: 7.08 µM.

Q: Which Potency does the source give for `CC1(C)Oc2ccc(C(=O)NC3CCCCC3)cc2N(CC#N)C1=O` here?
A: Its Potency is inconclusive: 10 µM [inhibitor, partial curve, poor fit].

Q: Which Potency does the source give for `CCOc1cccc(C(=O)NC(=S)Nc2cccc(NC(=O)c3ccccc3Cl)c2)c1` here?
A: Its Potency is inconclusive: 25.9 µM [inhibitor, partial curve, poor fit].

Q: For `CN(C)S(=O)(=O)c1ccc(-c2csc(N/N=C/c3ccc(O)cc3)n2)cc1`, which Potency is on record?
A: Its Potency is active: 7.08 µM.

Q: For `CCN1CCN(c2cc(C)c3cc(NC(=O)c4cc(OC)cc(OC)c4)ccc3n2)CC1`, which Potency is on record?
A: Its Potency is inconclusive: 31.6 µM [inhibitor, single point].

Q: With `CCOC(=O)N1CCC(n2c(SCC(=O)Nc3nccs3)nc3ccsc3c2=O)CC1` as the molecule, how does the Potency read?
A: The Potency was inconclusive: 11.6 µM [inhibitor, partial curve, poor fit].

Q: For `O=S(Cc1cc(Sc2ccccc2)nc(-c2ccccc2)n1)c1ccccc1` (configuration not stated), which Potency is on record?
A: The Potency was inconclusive: 5.62 µM [inhibitor, full curve, poor fit].

Q: For `CCC(=O)N1CCc2cc(CNS(=O)(=O)c3cc(Cl)ccc3OC)ccc21`, which Potency is on record?
A: Its Potency is “inactive”.

Q: Which Potency does the source give for `O=c1c(Cc2ccc(F)cc2)c(O)ccn1Cc1cccc(Cl)c1` here?
A: The Potency was inconclusive: 0.251 µM [inhibitor, full curve, poor fit].

Q: Which Potency does the source give for `COc1ccc(Br)cc1CNC(=O)CCSCc1ccc(Cl)cc1` here?
A: The Potency was “inactive”.

Q: Which Potency does the source give for `COc1cc(C(=O)OC(C)C(=O)NCC2CCCCC2)cc(NC(=O)c2ccco2)c1OC` (configuration not stated) here?
A: The Potency was inconclusive: 29.1 µM [inhibitor, single point].

Q: For `CCCn1c(SCC(=O)Nc2ccccc2OC)nnc1-c1ccco1`, which Potency is on record?
A: The Potency was inconclusive: 7.08 µM [inhibitor, full curve, poor fit].

Q: For `COc1cc(/C=N/NC(=O)c2ccc(N3CCCC3=O)cc2)ccc1O`, which Potency is on record?
A: The Potency was inconclusive: 15.8 µM [inhibitor, single point].

Q: For `COc1ccc(NC(=O)c2oc3ccccc3c2NC(=O)Cc2ccc(F)cc2)c(OC)c1`, which Potency is on record?
A: Its Potency is “inactive”.

Q: Which Potency does the source give for `C=CCOc1nc2c(c(=O)n(C)c(=O)n2C)n1Cc1c(Cl)cccc1Cl` here?
A: The Potency was inconclusive: 22.4 µM [inhibitor, single point].

Q: With `COCCC(=O)N1CCC(Oc2ccc(C(=O)N3CCC[C@H]3CO)cc2)CC1` as the molecule, how does the Potency read?
A: Its Potency is inconclusive: 0.891 µM [inhibitor, single point].

Q: Which Potency does the source give for `COc1ccc(N2CCN(C(CNC(=O)c3ccco3)c3ccco3)CC2)cc1` (configuration not stated) here?
A: Its Potency is inconclusive: 1.26 µM [activator, single point].

Q: With `CC(=O)c1cccc(NC(=S)N2CCN(S(=O)(=O)c3ccccc3)CC2)c1` as the molecule, how does the Potency read?
A: The Potency was inconclusive: 1.26 µM [inhibitor, single point].

Q: Which Potency does the source give for `COc1ccc(-c2nc3ccc(C(=O)NCc4ccc(C)cc4)cc3nc2-c2ccc(OC)cc2)cc1` here?
A: Its Potency is inconclusive: 12.6 µM [activator, single point].

Q: For `CC1(C(=O)NC(=S)N(Cc2ccccc2)c2ccccn2)CC1(Cl)Cl` (configuration not stated), which Potency is on record?
A: The Potency was “inactive”.

Q: Which Potency does the source give for `CCOc1cc(CNC(C)(C)CO)cc(Br)c1OCc1ccc(Cl)cc1Cl` here?
A: Its Potency is inconclusive: 23.1 µM [inhibitor, single point].

Q: For `Cc1cc(=O)[nH]c(SCC(=O)N2CCN(c3ccccc3)CC2)n1`, which Potency is on record?
A: The Potency was inconclusive: 35.5 µM [activator, single point].

Q: Which Potency does the source give for `COc1ccc(C(C)NC(=S)NCc2ccc(F)cc2)cc1` (configuration not stated) here?
A: The Potency was inconclusive: 17.8 µM [inhibitor, single point].

Q: With `Cc1c(NC(=O)CSc2nnc(N)s2)c(=O)n(-c2ccccc2)n1C` as the molecule, how does the Potency read?
A: Its Potency is inconclusive: 20.6 µM [inhibitor, single point].

Q: For `COc1ccc(C(C(=O)NC2CCCCC2)N(C(=O)Cc2c[nH]c3ccccc23)c2ccccc2C)cc1OC` (configuration not stated), which Potency is on record?
A: Its Potency is inconclusive: 35.5 µM [inhibitor, single point].

Q: For `O=C(NC(=S)Nc1ccc(Cl)cc1)c1ccccc1`, which Potency is on record?
A: Its Potency is inconclusive: 6.31 µM [activator, single point].

Q: For `CCOC(=O)N1CCN(C(=O)COc2ccc(Br)cc2)CC1`, which Potency is on record?
A: Its Potency is “inactive”.

Q: For `CNS(=O)(=O)c1cccc(C(=O)OCC(=O)c2ccc3c(c2)OCCO3)c1`, which Potency is on record?
A: The Potency was inconclusive: 6.31 µM [inhibitor, partial curve, poor fit].

Q: Which Potency does the source give for `O=C(CSc1ccc(Cl)cc1)NC1=NN(c2ccccc2)C(=O)C1` here?
A: Its Potency is inconclusive: 17.8 µM [activator, single point].

Q: For `CC(C)NC(=O)c1ccc2c(c1)nnn2C`, which Potency is on record?
A: The Potency was “inactive”.

Q: With `CN1CCN(CCc2nc3cc(NC(=O)COc4ccc(Cl)cc4)ccc3n2C)CC1` as the molecule, how does the Potency read?
A: Its Potency is inconclusive: 20 µM [inhibitor, partial curve, poor fit].

Q: With `Cc1ccc(NC(=O)CN2C(=O)C(C)(C)c3cc(S(=O)(=O)N4CCCCC4)ccc32)c(Br)c1` as the molecule, how does the Potency read?
A: The Potency was inconclusive: 22.4 µM [inhibitor, single point].

Q: Which Potency does the source give for `COc1cccc(-c2cc(C(=O)Nc3cccnc3Cl)no2)c1` here?
A: The Potency was inconclusive: 6.31 µM [activator, single point].

Q: For `Cc1cc(NC(=S)NC(=O)CC(C)C)ccc1Br`, which Potency is on record?
A: Its Potency is inconclusive: 20.6 µM [activator, single point].

Q: Which Potency does the source give for `COC(=O)c1ccc(Cn2nc(-c3cc(C)ccc3C)ccc2=O)cc1` here?
A: Its Potency is inconclusive: 31.6 µM [inhibitor, partial curve, poor fit].

Q: With `COC(=O)c1ccc(C(=O)OC)c(NC(=O)CN2CCN(c3ccccc3)CC2)c1` as the molecule, how does the Potency read?
A: Its Potency is inconclusive: 32.6 µM [inhibitor, single point].

Q: With `CC1(C)CC(=O)C(C=NCC(O)c2ccccc2)=C(O)C1` (configuration not stated) as the molecule, how does the Potency read?
A: The Potency was “inactive”.

Q: For `COc1ccc(CN2CCN(C(=O)c3ccc(S(=O)(=O)N4CCCCCC4)cc3)CC2)cc1F`, which Potency is on record?
A: Its Potency is inconclusive: 35.5 µM [inhibitor, single point].

Q: Which Potency does the source give for `CCc1c(C)nc(N)nc1N1N=C1SCC#N` here?
A: The Potency was “inactive”.

Q: With `Cc1ccc(O)c(-c2cc(C(=O)Nc3ccc(S(=O)(=O)N4CC(C)OC(C)C4)cc3)[nH]n2)c1` (configuration not stated) as the molecule, how does the Potency read?
A: Its Potency is inconclusive: 29.1 µM [inhibitor, single point].
